Laboratory results reported in PubChem BioAssay AID1347076 (National Center for Advancing Translational Sciences (NCATS), 2019).
Hit rate of the full screen: of about 400,000 compounds, about 13,000 (3.2%) were called active. Inconclusive means that the source gave no clear call. Such entries were picked first, then a sample of the others. Calls come from the whole dose curve; as a rule, active = well fitted cell-killing curve with a large enough effect; inconclusive = small, poorly fitted or top-dose-only effect, or effect the other way; inactive = flat fitted curve, though single readings scatter. Where the call is inconclusive, the potency comes from a doubtful curve fit.

assay: qHTS assay for MDR1-selective chemotherapeutics: Primary screen using the drug-selected MDR subline cells KB-V1; details: KB-V1 MDR cells viability, CellTiter-Glo, 72 h; activity change, negative = cytotoxicity: at 46.1 µM (top of the series); note: nearly all actives have a fitted effect of over 60% in size
Summary of the method: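 Cells of the MDR subline KB-V1 are plated, dosed with compound at multiple concentrations, and incubated 72 h at 37 degrees C; CellTiter-Glo is then added and luminescence read after 10 min.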
% is set by controls: 0 for no effect and ±100 for the full control effect; potency is the fitted concentration of half-maximal effect.

Row | Compound | Potency | activity change, negative = cytotoxicity
1 | CC1=C(C(=O)OCc2ccc3c(c2)OCO3)C(c2ccccc2OCc2ccccc2)NC(=O)N1 (stereo not drawn) | inconclusive: 29.1 µM [cytotoxic, single point] | –
2 | CCC(Cc1ccccc1)NC(=O)c1ccc2nc(N3CCOCC3)sc2c1 (stereo not drawn) | inconclusive: 14.6 µM [cytotoxic, single point] | –
3 | CCC(C)C(NC(=O)c1ccccc1)C(=O)Nc1ccc(S(=O)(=O)Nc2cc(C)nc(C)n2)cc1 (stereo not drawn) | inactive | –
4 | COc1ccccc1C(=O)NCCC(=O)Nc1ncccc1O | inactive | –
5 | Cc1ccc2nc(-c3cc(NC(=O)c4ccc5c(c4)OCCO5)ccc3Cl)oc2c1 | – | inconclusive: 34.8%
6 | CC(C)Nc1nc(NCCOc2ccccc2Cl)c2sccc2n1 | inconclusive: 3.66 µM [cytotoxic, full curve] | –
7 | O=C(Nc1ccccn1)c1ccc(S(=O)(=O)N2CCCCCC2)cc1 | inconclusive: 23.1 µM [cytotoxic, single point] | –
8 | COc1cccc(N2CCN(C(=S)Nc3cc(C)cc(C)c3)CC2)c1 | inconclusive: 23.1 µM [cytotoxic, single point] | –
9 | COc1cccc(N2CCN(C(=O)c3cnn(C(C)(C)C)c3C3CCN(C(=O)OC(C)(C)C)CC3)CC2)c1 | inactive | –
10 | COC(=O)Cn1c(=NC(=O)c2ccc(S(=O)(=O)N3CCc4ccccc4C3)cc2)sc2cc(OC)ccc21 | inconclusive: 5.8 µM [cytotoxic, full curve, poor fit] | –
11 | COc1ccccc1CN1CCN(Cc2ccc3ccccc3c2)CC1 | inactive | –
12 | Cn1c(SCC(=O)Nc2ccccc2F)nc2c(c1=O)SCC2 | inconclusive: 6.51 µM [cytotoxic, partial curve] | –
13 | O=C(NNC(=S)Nc1ccccc1)c1cccc(S(=O)(=O)N2CCOCC2)c1 | inconclusive: 0.0073 µM [cytotoxic, full curve, poor fit] | –
14 | CCN1C(=O)/C(=C\N(C)C)S/C1=N\S(=O)(=O)c1ccccc1 | inconclusive: 18.4 µM [cytotoxic, partial curve] | –
15 | COC(=O)c1c(NC(=O)c2ccc(C)o2)sc2c1CCCCC2 | inconclusive: 7.31 µM [cytotoxic, partial curve] | –
16 | O=C(NCC(c1cccs1)N1CCOCC1)c1ccccc1NS(=O)(=O)c1ccc(Cl)cc1 (stereo not drawn) | active: 11.6 µM | –
17 | O=C(NCc1ccc(Cl)cc1)C(=O)Nc1ccc(Br)cc1 | inactive | –
18 | CC1CCCCC1NS(=O)(=O)c1ccc(S(=O)(=O)N2CCCC2)cc1 (stereo not drawn) | inconclusive: 29.1 µM [cytotoxic, single point] | –
19 | CCCCOC(=O)c1ccc(NC(=O)C(=O)NCc2ccccn2)cc1 | inactive | –
20 | CCc1ccc(NC(=O)CCC(=O)Nc2nnc(C(F)(F)F)s2)cc1 | inconclusive: 0.651 µM [rising, full curve] | –
21 | Cc1c(Br)c([N+](=O)[O-])nn1C(C)C(=O)N1CCCc2ccccc21 (stereo not drawn) | inconclusive: 16.4 µM [cytotoxic, partial curve] | –
22 | COc1ccccc1NS(=O)(=O)c1ccc(NN=C2CCCCC2)c([N+](=O)[O-])c1 | active: 16.4 µM | –

Row | Compound | Potency | activity change, negative = cytotoxicity
23 | O=C(c1ccc2c3c(cccc13)CC2)N1CCN(c2ncccn2)CC1 | inconclusive: 18.4 µM [cytotoxic, partial curve] | –
24 | Cc1ccc2nc(SCC(=O)c3c(N)n(C)c(=O)n(C)c3=O)[nH]c2c1 | inconclusive: 20.6 µM [cytotoxic, partial curve, poor fit] | –
25 | CCOc1cc(/C=N/NC(=O)C(=O)NCCCOC(C)C)cc(Br)c1O | inconclusive: 20.6 µM [cytotoxic, single point] | –
26 | COC(=O)[C@@]12C[C@@H](CC(=O)NCCc3ccccc3OC)C(=O)N(Cc3ccco3)C1=CCC(C)(C)C2 | active: 14.6 µM | –
27 | CN(C)S(=O)(=O)c1ccc2c(c1)C(=NNC(N)=O)c1cc(S(=O)(=O)N(C)C)ccc1-2 | inconclusive: 20.6 µM [rising, single point] | –
28 | COc1ccc(NC(=O)Cn2nnc(-c3ccccc3NS(=O)(=O)c3ccc(OC)cc3)n2)cc1 | inconclusive: 16.4 µM [cytotoxic, partial curve, poor fit] | –
29 | COc1cc(CC(=O)Nc2ccc3nc(SC)sc3c2)cc(OC)c1OC | inconclusive: 18.4 µM [cytotoxic, partial curve] | –
30 | Cc1cccc(-n2c(-c3ccccc3)cn3c4c(=O)[nH]c(=O)n(C)c4nc23)c1 | inconclusive: 13 µM [cytotoxic, partial curve] | –
31 | O=C(N/N=C/c1c[nH]c2ccccc12)c1cc2ccccc2o1 | inconclusive: 20.6 µM [cytotoxic, single point] | –
32 | CCOc1ccc(C(=O)c2nc3c(n2O)CCCCC3)cc1 | inconclusive: 29.1 µM [cytotoxic, single point] | –
33 | COC(=O)C[C@@H]1CC[C@H](NC(=O)Nc2ccc(F)cc2)[C@@H](CO)O1 | inactive | –
34 | O=c1c2ccccc2nc(-c2ccoc2)n1CCc1ccccc1 | active: 11.6 µM | –
35 | CCOC(=O)C1=C(C)NC2=C(C(=O)CCC2)C1c1cn(Cc2ccc(Cl)cc2Cl)nc1-c1ccccc1 (stereo not drawn) | inconclusive: 29.1 µM [cytotoxic, single point] | –
36 | Cc1cc(Br)ccc1OCCn1ccnc1 | active: 16.4 µM | –
37 | Cc1ccccc1N1C(=O)C(Oc2ccc(Cl)cc2)C1CNC(C)(C)C (stereo not drawn) | active: 5.8 µM | –
38 | CC(Oc1ccc(F)cc1)C(O)CCN(C)C (stereo not drawn) | inconclusive: 29.1 µM [rising, single point] | –
39 | Cc1cc(C)cc(-n2c(C)cc(/C=N/NC(=O)CSc3ncccn3)c2C)c1 | inconclusive: 32.6 µM [cytotoxic, single point] | –
40 | Cc1cccc(-n2nnc(C(=O)NCc3ccc4c(c3)OCO4)c2N)c1 | inconclusive: 0.517 µM [cytotoxic, partial curve, poor fit] | –
41 | CCOc1ccc(C(=O)Nc2c(C(=O)Nc3ccccc3F)oc3ccccc23)cc1OCC | inactive | –
42 | CCOC(=O)c1cc(OC)c2cccc(CN3CCCC(C)(C(=O)NCCOC)C3)c2c1 (stereo not drawn) | inactive | –
43 | CC1CC(C)CN(C(=O)c2ccc3ncsc3c2)C1 (stereo not drawn) | inconclusive: 20.6 µM [cytotoxic, single point] | –

Among those listed so far, these have a nitro group on carbon.
Row | Compound | Potency | activity change, negative = cytotoxicity
21 | Cc1c(Br)c([N+](=O)[O-])nn1C(C)C(=O)N1CCCc2ccccc21 (stereo not drawn) | inconclusive: 16.4 µM [cytotoxic, partial curve] | –
22 | COc1ccccc1NS(=O)(=O)c1ccc(NN=C2CCCCC2)c([N+](=O)[O-])c1 | active: 16.4 µM | –
